# B1: FasDD: intracellular death domain of Fas (protein)
# chain: SKYITTIAGVMTLSQVKGFVRKNGVNEAKIDEIKNDNVQDTAEQKVQLLRNWHQLHGKKEAYDTLIKDLKKANLCTLAEKIQTII
# System: Ca^2+/CaM–FasDD complex
# Assay: Un-induced proteolysis: stability on storage at 4°C for one week
molecule,measurement,setting,value
B1,"stability on storage, unbound control",,stable and not prone to degradation
same,"stability on storage, in 2:1 Ca^2+/CaM–FasDD complex","no protease added, SDS-PAGE (minor subtilisin contamination)",degraded and gave rise to stable and proteolysis resistant ~5 kDa FasDD fragment(s)

# From PMC4703387, “Identification of the Calmodulin-Binding Domains of Fas Death Receptor” (PLoS ONE, 2016)
